In patent US20260092920A1 (FIBROINOVA BIOMEDICAL TECHNOLOGY GUANGZHOU, published 2026) one finds binding data, which are given here for two molecules.

No constants are given. Whether binding was seen depends on the method and setting. Some entries that bind do so weakly or less than the wild type. For part of these data: Tags and fused reporters may be left off the sequences shown.

The target in test [1] is T1, His-tagged extracellular domain of antigen DDR2 (human) (UniProt Q16832).
T1 sequence (looked up): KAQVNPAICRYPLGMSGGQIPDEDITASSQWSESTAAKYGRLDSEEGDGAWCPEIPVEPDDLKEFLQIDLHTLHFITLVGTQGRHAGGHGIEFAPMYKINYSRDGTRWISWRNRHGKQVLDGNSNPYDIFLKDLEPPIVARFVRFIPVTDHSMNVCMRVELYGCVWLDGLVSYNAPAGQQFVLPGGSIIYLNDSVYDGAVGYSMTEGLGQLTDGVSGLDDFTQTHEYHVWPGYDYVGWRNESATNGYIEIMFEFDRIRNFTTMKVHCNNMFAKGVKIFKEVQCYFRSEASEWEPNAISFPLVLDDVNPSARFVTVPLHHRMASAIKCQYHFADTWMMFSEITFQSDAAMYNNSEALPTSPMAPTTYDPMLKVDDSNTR
Description: BLI (ForteBio), His-tagged DDR2 extracellular domain captured on Ni-NTA sensors, nanobody in solution. Background: BLI is a label-free optical method that tracks binding on a fibre tip over time.

The target of test [2] is T2, DDR2 in the brain tissue of model mice (mouse) (UniProt Q62371).
T2 sequence (looked up): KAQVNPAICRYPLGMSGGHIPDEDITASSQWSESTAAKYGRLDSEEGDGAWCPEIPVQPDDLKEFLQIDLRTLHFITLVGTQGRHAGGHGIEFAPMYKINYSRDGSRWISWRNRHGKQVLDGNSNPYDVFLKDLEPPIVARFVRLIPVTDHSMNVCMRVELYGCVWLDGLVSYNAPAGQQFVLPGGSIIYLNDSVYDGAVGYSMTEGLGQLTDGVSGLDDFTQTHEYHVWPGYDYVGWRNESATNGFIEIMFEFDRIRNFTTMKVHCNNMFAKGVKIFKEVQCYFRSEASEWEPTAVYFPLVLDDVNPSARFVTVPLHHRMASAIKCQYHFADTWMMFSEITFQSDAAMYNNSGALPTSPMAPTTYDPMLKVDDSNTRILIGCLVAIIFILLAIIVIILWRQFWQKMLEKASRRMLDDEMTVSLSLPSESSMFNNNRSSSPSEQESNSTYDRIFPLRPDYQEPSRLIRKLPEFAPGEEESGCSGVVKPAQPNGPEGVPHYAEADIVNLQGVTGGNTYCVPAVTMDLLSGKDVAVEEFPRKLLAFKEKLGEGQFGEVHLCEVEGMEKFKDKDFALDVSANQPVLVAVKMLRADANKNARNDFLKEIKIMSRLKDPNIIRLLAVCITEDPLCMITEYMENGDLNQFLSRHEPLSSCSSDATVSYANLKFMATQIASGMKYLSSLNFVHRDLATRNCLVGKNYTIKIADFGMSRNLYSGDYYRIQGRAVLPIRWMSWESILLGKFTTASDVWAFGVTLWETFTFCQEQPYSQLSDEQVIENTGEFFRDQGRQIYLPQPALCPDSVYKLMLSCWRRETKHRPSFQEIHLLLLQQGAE
Description: in-vivo fluorescence imaging after tail vein injection, APP/PS1 AD mouse model.

Test [3] concerns the target T2, DDR2 in the brain tissue of model mice (mouse). Description: in-vivo fluorescence imaging after tail vein injection, ALS (Optn knockout) mouse model.

B1: DDR2 nanobody 1A12 (VHH)
VHH: EVQLVESGGGLVQPGGSLRLSCAASGYILSPNVMGWFRQAPGKGRELVAAISWGDGRTYYPDSVEGRFTISRDNAKRMVYLQMNSLRAEDTAVYYCAASRKGYPSTRSDPYNYWGQGTQVTVSS
notes: VHH of an alpaca heavy chain antibody raised against the human DDR2 extracellular domain; Expressed and purified; also called Nb-DDR2; 1A12-VHH
As to B1, the binding entry in test [1] is on record as “binds”.

B2: DDR2 nanobody 1A12 labeled with indocyanine green (ICG) (VHH)
VHH: EVQLVESGGGLVQPGGSLRLSCAASGYILSPNVMGWFRQAPGKGRELVAAISWGDGRTYYPDSVEGRFTISRDNAKRMVYLQMNSLRAEDTAVYYCAASRKGYPSTRSDPYNYWGQGTQVTVSS
modifications: indocyanine green (ICG) coupled with ICG-NHS; labeled residues not stated
With B2, the binding entry in test [2] and in test [3] was “binds” each time.
